Values from PubChem BioAssay AID1224830 (NIAID, 2016)

- Assay: 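Host factors that control LPS-induced TNF expression in human macrophages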 (primary screen)
- Cells: human THP-1 monocytic leukaemia cells, TNF dual-luciferase reporter clone, PMA-differentiated to macrophage-like cells
- Knock-down reagent: siRNA pool against human genes, 50 nM
- Duration: LPS for 4 h, given about 3 days after siRNA transfection
- Challenge: bacterial LPS (TLR4 ligand), 10 ng/ml
- Measurement: 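TNF firefly reporter luminescence divided by renilla, normalised to the plate median, then turned into a robust z-score for each replicate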
- Scale: TNF reporter robust z-score: higher = stronger TNF reporter response to LPS
- Rule for the call: 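Each well counts as active if its z-score is over 2.8 or under -1.5; controls are left without a call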
The whole screen tested about 18,000 reagents; this is an unselected part. About 2,900 of them (16%) were called active. 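Calls are made per well; low scores hint the gene aids the LPS response, high scores that it dampens it.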 A number with no mark means an inactive call. Repeated entries: four replicate wells of each siRNA pool.

no.	target	TNF reporter robust z-score
1	SEPTIN10	-1.37
2	SEPTIN10	-0.11
3	SEPTIN10	-0.49
4	SEPTIN10	0.42
5	HSF2BP	0.25
6	HSF2BP	0.91
7	HSF2BP	-0.59
8	HSF2BP	0.76
9	TTC13	0.16
10	TTC13	1.93
11	TTC13	-0.61
12	TTC13	-0.5
13	NDUFB10	0.31
14	NDUFB10	0.22
15	NDUFB10	-0.02
16	NDUFB10	-0.82
17	ZNF568	-0.83
18	ZNF568	-0.76
19	ZNF568	-0.39
20	ZNF568	-0.22
21	RNF166	0.03
22	RNF166	-0.21
23	RNF166	-0.66
24	RNF166	1.11
25	CTAG1B	0.19
26	CTAG1B	1.36
27	CTAG1B	1.27
28	CTAG1B	-0.8
29	SYMPK	-0.96
30	SYMPK	0.02
31	SYMPK	-0.72
32	SYMPK	1.19
33	LRRTM2	1.49
34	LRRTM2	3.43 (active)
35	LRRTM2	1.21
36	LRRTM2	1.11
37	ADRA2B	-0.38
38	ADRA2B	-0.74
39	ADRA2B	-1.26
40	ADRA2B	0.21
41	PADI4	-0.09
42	PADI4	-0.8
43	PADI4	-1.54 (active)
44	PADI4	-0.2
45	GRK5	0.1
46	GRK5	-0.23
47	GRK5	1.63
48	GRK5	1.14
49	FBN1	-0.24
50	FBN1	0.28
51	FBN1	-0.2
52	FBN1	-0.42
53	BABAM1	2.24
54	BABAM1	0.93
55	BABAM1	1.38
56	BABAM1	0.98
57	ZSCAN4	-0.98
58	ZSCAN4	-1.44
59	ZSCAN4	-1.21
60	ZSCAN4	-1.09
61	DIP2B	0.88
62	DIP2B	1.52
63	DIP2B	1.84
64	DIP2B	0.31
65	ALDH1A3	0.11
66	ALDH1A3	0.13
67	ALDH1A3	0.45
68	ALDH1A3	0.4
69	SPATS2L	-0.47
70	SPATS2L	0
71	SPATS2L	-0.35
72	SPATS2L	0.85
73	PSIP1	-0.02
74	PSIP1	-0.39
75	PSIP1	-0.13
76	PSIP1	0.1

Laid out differently: results already given.
| target | TNF reporter robust z-score |
| --- | --- |
| GRK5 | 0.1 |
| GRK5 | -0.23 |
| GRK5 | 1.63 |
| GRK5 | 1.14 |
